Assay results taken from PMC3763552.
These are yes or no findings as the source states them, for the method shown. In cells and extracts the contact can be indirect.

Protein sequences, listed by entry. Tags and fused reporters are not part of them.
UniProt Q04637: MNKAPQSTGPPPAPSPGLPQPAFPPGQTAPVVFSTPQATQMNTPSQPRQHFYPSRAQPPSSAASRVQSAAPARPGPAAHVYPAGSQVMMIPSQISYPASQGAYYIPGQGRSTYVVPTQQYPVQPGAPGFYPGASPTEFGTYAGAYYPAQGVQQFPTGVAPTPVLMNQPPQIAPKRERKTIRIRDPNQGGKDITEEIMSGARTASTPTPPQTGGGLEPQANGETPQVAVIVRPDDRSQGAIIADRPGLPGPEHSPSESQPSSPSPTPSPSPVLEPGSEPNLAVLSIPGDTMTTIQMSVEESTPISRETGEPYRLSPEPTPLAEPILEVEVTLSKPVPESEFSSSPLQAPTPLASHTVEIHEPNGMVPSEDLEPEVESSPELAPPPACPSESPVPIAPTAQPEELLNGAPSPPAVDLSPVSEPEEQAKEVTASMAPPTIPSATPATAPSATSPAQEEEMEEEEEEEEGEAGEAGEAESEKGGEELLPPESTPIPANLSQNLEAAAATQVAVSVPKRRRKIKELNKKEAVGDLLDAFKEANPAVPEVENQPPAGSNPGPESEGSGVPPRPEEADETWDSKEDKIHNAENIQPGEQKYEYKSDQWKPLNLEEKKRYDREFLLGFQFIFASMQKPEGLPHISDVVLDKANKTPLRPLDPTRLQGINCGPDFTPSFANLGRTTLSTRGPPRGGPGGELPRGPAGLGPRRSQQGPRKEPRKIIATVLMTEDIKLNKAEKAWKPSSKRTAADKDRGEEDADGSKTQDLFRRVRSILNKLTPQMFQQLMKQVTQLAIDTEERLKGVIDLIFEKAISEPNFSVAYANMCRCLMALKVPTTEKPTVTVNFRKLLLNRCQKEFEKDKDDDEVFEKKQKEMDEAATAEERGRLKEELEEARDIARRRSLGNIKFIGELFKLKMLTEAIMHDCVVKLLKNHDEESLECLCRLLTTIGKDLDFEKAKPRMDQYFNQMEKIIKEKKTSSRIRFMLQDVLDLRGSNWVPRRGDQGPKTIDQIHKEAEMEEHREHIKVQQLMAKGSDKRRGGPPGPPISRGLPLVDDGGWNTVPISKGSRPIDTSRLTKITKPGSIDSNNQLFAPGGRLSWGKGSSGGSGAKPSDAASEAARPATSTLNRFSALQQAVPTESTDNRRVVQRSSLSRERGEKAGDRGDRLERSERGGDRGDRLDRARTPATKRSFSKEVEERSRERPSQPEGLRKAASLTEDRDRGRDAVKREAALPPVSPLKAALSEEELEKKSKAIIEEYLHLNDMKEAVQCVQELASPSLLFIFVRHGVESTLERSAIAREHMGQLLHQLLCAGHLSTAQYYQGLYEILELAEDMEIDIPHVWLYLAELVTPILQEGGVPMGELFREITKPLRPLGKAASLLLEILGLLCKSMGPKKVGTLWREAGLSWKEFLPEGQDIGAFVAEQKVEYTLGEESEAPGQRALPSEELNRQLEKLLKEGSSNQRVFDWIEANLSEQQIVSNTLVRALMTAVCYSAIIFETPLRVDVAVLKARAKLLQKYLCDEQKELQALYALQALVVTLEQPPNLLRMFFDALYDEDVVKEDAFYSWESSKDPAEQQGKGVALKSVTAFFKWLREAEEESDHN
UniProt Q13541: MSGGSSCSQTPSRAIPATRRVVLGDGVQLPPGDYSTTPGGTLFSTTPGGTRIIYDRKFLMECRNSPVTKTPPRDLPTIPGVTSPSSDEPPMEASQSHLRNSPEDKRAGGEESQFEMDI

Target: endogenous eIF4GI (human (endogenous in HeLa S3)) (UniProt Q04637)

binding: no binding
Substance: 4E-BP1 (from UniProt Q13541 1-118)
